For one substance, binding results are on record in publication PMC8899846.

Chains of the proteins cited; added tags and fusions are not shown. Residues count along the entry.
UniProt O75460, residues 19-977: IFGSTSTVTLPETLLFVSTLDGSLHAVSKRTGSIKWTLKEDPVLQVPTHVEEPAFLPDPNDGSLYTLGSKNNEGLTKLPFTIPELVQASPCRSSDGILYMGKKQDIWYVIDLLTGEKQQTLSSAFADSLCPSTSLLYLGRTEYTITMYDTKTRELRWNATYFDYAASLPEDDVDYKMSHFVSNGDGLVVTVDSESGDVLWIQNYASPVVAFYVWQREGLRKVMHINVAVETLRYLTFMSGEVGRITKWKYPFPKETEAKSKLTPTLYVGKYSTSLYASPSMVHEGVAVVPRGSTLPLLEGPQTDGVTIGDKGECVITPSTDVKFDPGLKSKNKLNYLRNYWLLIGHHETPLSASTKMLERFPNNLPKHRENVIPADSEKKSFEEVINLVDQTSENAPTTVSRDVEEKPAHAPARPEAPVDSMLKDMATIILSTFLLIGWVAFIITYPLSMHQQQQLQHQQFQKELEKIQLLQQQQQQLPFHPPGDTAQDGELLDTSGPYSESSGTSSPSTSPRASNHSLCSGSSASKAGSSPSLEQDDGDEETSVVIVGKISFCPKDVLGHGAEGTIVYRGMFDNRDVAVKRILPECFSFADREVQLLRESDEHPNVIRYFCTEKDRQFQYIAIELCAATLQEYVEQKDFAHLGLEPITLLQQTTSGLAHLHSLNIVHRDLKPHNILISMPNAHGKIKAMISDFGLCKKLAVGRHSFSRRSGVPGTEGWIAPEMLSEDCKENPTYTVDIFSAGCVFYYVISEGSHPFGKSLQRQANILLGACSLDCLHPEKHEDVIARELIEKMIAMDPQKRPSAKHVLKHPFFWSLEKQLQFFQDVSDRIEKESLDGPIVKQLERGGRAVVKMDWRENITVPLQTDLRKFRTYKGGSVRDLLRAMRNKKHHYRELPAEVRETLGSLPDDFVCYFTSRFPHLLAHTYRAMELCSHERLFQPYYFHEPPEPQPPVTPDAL

The target in one experiment is T1, Y306F RtcB-Flag (mouse) (UniProt Q99LF4).
T1 sequence: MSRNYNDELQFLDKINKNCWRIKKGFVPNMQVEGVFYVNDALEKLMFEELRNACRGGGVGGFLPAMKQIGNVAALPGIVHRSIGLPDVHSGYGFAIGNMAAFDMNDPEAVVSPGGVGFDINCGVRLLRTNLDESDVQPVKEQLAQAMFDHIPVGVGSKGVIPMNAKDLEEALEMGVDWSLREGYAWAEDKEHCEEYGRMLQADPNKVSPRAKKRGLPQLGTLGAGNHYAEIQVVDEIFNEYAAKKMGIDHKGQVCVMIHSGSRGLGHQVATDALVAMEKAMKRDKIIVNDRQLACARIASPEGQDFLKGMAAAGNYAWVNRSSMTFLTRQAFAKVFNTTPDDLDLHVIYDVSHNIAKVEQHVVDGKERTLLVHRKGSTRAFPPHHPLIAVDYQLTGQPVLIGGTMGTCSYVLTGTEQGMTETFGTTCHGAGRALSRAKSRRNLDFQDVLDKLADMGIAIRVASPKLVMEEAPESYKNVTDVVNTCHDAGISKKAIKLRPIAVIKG
Description: co-IP; HEK293T co-transfected with 1 ug wt IRE1α and 1 ug WT or mutant RtcB-Flag plasmid, lysed 24 h later; CHAPS buffer (30 mM Tris-HCl pH 7.5, 150 mM NaCl, 1.5% CHAPS); IP with anti-Flag antibody, Dynabeads protein G; immunoblot with anti-IRE1α. On the technique in general: Immunoblotting shows a protein as a band on a membrane.

For experiment [1], the target named is T2, wt mouse RtcB-Flag (pCMV3-mRTCB-Flag) (mouse) (UniProt Q99LF4).
T2 sequence: T1 sequence with F306Y
The experiment is described as above.

Numbering of substitutions follows the chain as printed. These are yes or no findings as the source states them, for the method shown. In cells and extracts the contact can be indirect. Some results given as binding are weak or reduced against the parent protein; the word gives no strength. Tags and fused reporters may be left off the sequences shown.

For “IRE1-WT (inositol-requiring enzyme 1 alpha; pCDH-CMV-IRE1α-EF1-Puro-copGFP) (from UniProt O75460 19-977)”, the binding entry (with Y306F RtcB-Flag (mouse); in experiment [1]) was “binds” throughout.
